Results taken from publication PMC7274033.
No constants are given. Whether binding was seen depends on the method and setting. Binding seen in cells or lysates may run through a third protein. Some entries that bind do so weakly or less than the wild type. For some assays here: Sequences can lack the tags named with a protein.

Protein sequences, listed by entry. Tags and fused reporters are not part of them.
UniProt Q9QZL0: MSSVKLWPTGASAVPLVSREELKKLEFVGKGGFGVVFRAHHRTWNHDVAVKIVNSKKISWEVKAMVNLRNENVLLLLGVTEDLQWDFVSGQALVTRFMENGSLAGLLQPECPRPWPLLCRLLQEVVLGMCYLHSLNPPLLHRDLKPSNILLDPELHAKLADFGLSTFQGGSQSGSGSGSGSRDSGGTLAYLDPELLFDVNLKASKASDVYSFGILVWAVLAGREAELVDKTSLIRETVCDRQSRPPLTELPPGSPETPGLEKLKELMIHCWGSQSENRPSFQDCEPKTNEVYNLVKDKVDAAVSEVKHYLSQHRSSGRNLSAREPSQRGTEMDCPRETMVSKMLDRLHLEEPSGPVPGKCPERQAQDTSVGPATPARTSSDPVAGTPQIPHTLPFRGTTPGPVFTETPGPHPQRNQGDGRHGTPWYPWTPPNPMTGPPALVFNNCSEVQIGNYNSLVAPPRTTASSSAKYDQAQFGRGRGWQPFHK

T1: ASC (apoptosis-associated speck-like protein containing a CARD), endogenous in BMDMs (mouse (endogenous in BMDMs)) (UniProt Q9EPB4)
T1 sequence: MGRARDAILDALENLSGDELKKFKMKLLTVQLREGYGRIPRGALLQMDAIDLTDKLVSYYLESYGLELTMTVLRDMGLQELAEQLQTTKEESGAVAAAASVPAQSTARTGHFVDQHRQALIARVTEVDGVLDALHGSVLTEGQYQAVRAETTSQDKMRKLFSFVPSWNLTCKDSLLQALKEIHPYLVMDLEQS

T2: RIPK1 (RIP kinase 1), endogenous in BMDMs (mouse (endogenous in BMDMs)) (UniProt Q60855)
T2 sequence: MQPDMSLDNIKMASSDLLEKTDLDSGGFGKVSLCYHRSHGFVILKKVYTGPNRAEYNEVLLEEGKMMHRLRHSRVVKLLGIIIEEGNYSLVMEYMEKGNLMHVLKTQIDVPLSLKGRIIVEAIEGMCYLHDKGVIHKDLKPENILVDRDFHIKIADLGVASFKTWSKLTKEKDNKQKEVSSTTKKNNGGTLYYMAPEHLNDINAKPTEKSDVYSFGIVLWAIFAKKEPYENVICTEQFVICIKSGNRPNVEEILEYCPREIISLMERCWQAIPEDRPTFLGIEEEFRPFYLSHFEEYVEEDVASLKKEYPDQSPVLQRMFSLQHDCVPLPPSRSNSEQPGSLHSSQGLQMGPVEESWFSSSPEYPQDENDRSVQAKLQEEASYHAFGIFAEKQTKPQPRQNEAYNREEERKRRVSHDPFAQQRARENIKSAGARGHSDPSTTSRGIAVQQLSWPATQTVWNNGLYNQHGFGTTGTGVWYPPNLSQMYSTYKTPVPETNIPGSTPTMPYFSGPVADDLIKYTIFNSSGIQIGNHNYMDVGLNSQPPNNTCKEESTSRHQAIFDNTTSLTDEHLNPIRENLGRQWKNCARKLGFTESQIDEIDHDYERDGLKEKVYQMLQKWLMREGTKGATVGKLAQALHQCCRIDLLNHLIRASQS

T3: ASC (apoptosis-associated speck-like protein containing a CARD), endogenous in BMDMs (mouse (endogenous in BMDMs)), Q9EPB4
T3 chain: T1 sequence

B1: CASP8 (caspase-8), endogenous in BMDMs (protein, UniProt O89110 1-480)
chain: MDFQSCLYAIAEELGSEDLAALKFLCLDYIPHKKQETIEDAQKLFLRLREKGMLEEGNLSFLKELLFHISRWDLLVNFLDCNREEMVRELRDPDNAQISPYRVMLFKLSEEVSELELRSFKFLLNNEIPKCKLEDDLSLLEIFVEMEKRTMLAENNLETLKSICDQVNKSLLGKIEDYERSSTERRMSLEGREELPPSVLDEMSLKMAELCDSPREQDSESRTSDKVYQMKNKPRGYCLIINNHDFSKAREDITQLRKMKDRKGTDCDKEALSKTFKELHFEIVSYDDCTANEIHEILEGYQSADHKNKDCFICCILSHGDKGVVYGTDGKEASIYDLTSYFTGSKCPSLSGKPKIFFIQACQGSNFQKGVPDEAGFEQQNHTLEVDSSSHKNYIPDEADFLLGMATVKNCVSYRDPVNGTWYIQSLCQSLRERCPQGDDILSILTGVNYDVSNKDDRRNKGKQMPQPTFTLRKKLFFPP
B2: FADD, endogenous in BMDMs (protein, UniProt Q61160 1-205)
chain: MDPFLVLLHSLSGSLSGNDLMELKFLCRERVSKRKLERVQSGLDLFTVLLEQNDLERGHTGLLRELLASLRRHDLLQRLDDFEAGTATAAPPGEADLQVAFDIVCDNVGRDWKRLARELKVSEAKMDGIEEKYPRSLSERVRESLKVWKNAEKKNASVAGLVKALRTCRLNLVADLVEEAQESVSKSENMSPVLRDSTVSSSETP
B3: CASP8 (caspase-8), endogenous in BMDMs, O89110 1-480 (protein)
chain: B1 chain
B4: CASP8 (caspase-8), expressed from pCDH-CMV-CASP8 (protein, UniProt O89110 1-480)
chain: B1 chain
B5: ASC-turboGFP (apoptosis-associated speck-like protein containing a CARD), expressed from pCMV6-mASC-turboGFP, Q9EPB4 1-193 (protein)
chain: T1 sequence
B6: RIPK1 (RIP kinase 1), expressed from pCMV-mRIPK1, Q60855 1-656 (protein)
chain: T2 sequence

What was measured:
[1] = biological target: T1, ASC (apoptosis-associated speck-like protein containing a CARD), endogenous in BMDMs (mouse (endogenous in BMDMs)); experiment: co-IP; endogenous proteins of primary BMDMs stimulated 4 h with LPS (100 ng/mL) + TAK1 inhibitor 5Z-7-oxozeaenol (0.1 uM), without zVAD; NP-40 lysis buffer; RIPK1 or ASC immunoprecipitated, protein A/G plus agarose; immunoblot
[2] = biological target: T2, RIPK1 (RIP kinase 1), endogenous in BMDMs (mouse (endogenous in BMDMs)); experiment: as above
[3] = biological target: T2, RIPK1 (RIP kinase 1), endogenous in BMDMs (mouse (endogenous in BMDMs)); experiment: co-IP; endogenous proteins of primary BMDMs stimulated 4 h with LPS (100 ng/mL) + TAK1 inhibitor 5Z-7-oxozeaenol (0.1 uM) + zVAD; NP-40 lysis buffer; RIPK1 or ASC immunoprecipitated overnight at 4°C, protein A/G plus agarose; immunoblot
[4] = biological target: T1, ASC (apoptosis-associated speck-like protein containing a CARD), endogenous in BMDMs (mouse (endogenous in BMDMs)); experiment: as above
[5] = biological target: T3, ASC (apoptosis-associated speck-like …); experiment: as above; conditions: remark: other sources report otherwise
[6] = biological target: RIPK3-GFP (receptor-interacting serine/threonine-protein kinase 3) (UniProt Q9QZL0); experiment: co-IP; HEK293T co-transfected (600 ng each, 30 h) with ASC-turboGFP, CASP8, FLAG-NLRP3, RIPK1 and mCherry-ZBP1 with or without RIPK3-GFP; zVAD-fmk; RIPK3 immunoprecipitated; NP-40 lysis buffer; protein A/G-plus agarose; immunoblot
[7] = biological target: RIPK3-GFP (receptor-interacting serine/threonine-protein kinase 3), Q9QZL0; experiment: as above; conditions: remark: other sources report otherwise

| Binder | binding [1] | binding [2] | binding [3] | binding [7] | other results |
| --- | --- | --- | --- | --- | --- |
| B1 | binds weakly | binds weakly | binds |  |  |
| B2 | binds weakly | binds weakly | binds |  | binding [4]: binds |
| B3 |  |  |  |  | binding [5]: binds |
| B4 |  |  |  |  | binding [6]: binds |
| B5 |  |  |  | binds |  |
| B6 |  |  |  | binds |  |
